Several values for one entry are separate records, joined by “and”; a condition that tells them apart may be missing. Equal values may be shown once. Entries after “also recorded” stand apart in the source; their conditions may differ.

A short description of data set [1]: Charge/discharge of organic cathodes in CR2032 lithium half-cells. The conditions noted are these: for specific (discharging) capacity: LiTFSI in DOL/DME electrolyte; for electron transfer corresponding to specific capacity: 0.1 C; for dQ/dV redox peak for lithiation: LiTFSI in DME/DOL electrolyte. An excerpt:
With compounds 1-4 in hand, we evaluated their electrochemical redox behavior as the active components within the organic electrodes. FIG. 2A-FIG. 2D show the charge/discharge profiles during typical cycling for compounds 1-4 under the current density of 100 mA g^−1, and using lithium bis-trifluoromethanesulfonimide (LiTFSI) in dioxolane/dimethoxyethane (DOL/DME) as the electrolyte. Assuming the transfer of eight electrons to their carbonyl groups, the theoretical specific capacities of compounds 1-3 are 406.02, 294.46, and 257.44 mAh g^−1, respectively.
All experiments were performed at room temperature, and all cells were assembled in an mBraun argon-filled glovebox (<0.5 ppm water and oxygen content). Electrochemical measurements were recorded on Bio-Logic VMP3 potentiostat and LAND CT-2001A battery tested. The following starting materials and solvents were purchased from commercial suppliers and used without further purification: lithium bis(trifluoromethanesulfonyl)imide (LiTFSI), dimethoxyethane (DME), and dioxolane (DOL) from MilliporeSigma. LiTFSI was allowed to dry in the glovebox for 24 prior to being used.
(§1) To fabricate free-standing electrodes, the active material (compounds 1-4), Katjenblack carbon (KB), and polytetrafluoroethylene (PTFE) binder were mixed in a 5:4:1 mass ratio and then pressed into pellets with the aid of EtOH (areal mass loading ˜1.5 mg cm^−2). The typical thickness of these free-standing cathodes was ˜150 μm from the SEM measurement (FIG. 9A). For Fourier transform infrared measurements, macrocycle compound 2, KB, and PTFE binder were mixed in a 6:3:1 mass ratio to give an active material areal mass loading of ˜2 mg cm^−2 For the long cycling and rate performance test, a mass ratio of 3:5:2 (30% of compound 2 and compound 4) was used, and the mixture was rolled onto a stainless-steel mesh disc with ⅜-inch diameter (areal mass loading ˜0.4 mg cm^−2). All electrodes were dried at 85° C. under vacuum for 24 hours before using.
(§2) The 0.5M lithium electrolyte solution was prepared by slowly adding LiTFSI (0.287 g) into a 1:1 solution of DME/DOL (2 mL). This 0.5M electrolyte solution was used for all electrochemical studies, while a more viscous 3M electrolyte solution (prepared following the same procedure as stated above) was used for performance characterization studies. CR2032 coin cell and glass fiber separators (Whatman, Grade GF/A) were used for all electrochemical characterizations unless otherwise indicated. Lithium foil with 7/16-inch diameter was used as the anode and the amount of electrolyte added was 60 μL. Half-cells were assembled adopting a conventional CR2032 coin cell architecture and subsequently using electrode 1, electrode 2, electrode 3, and electrode 4 as the cathode and lithium foil as the anode.

Data set [2] can be described thus: Galvanostatic cycling at 1C in 3M LiTFSI electrolyte.
Description: After 135 cycles, the discharge capacity retention of compound 2 is 65%. […] In situ infrared spectra of compound 2 (FIG. 14) show the C═O signal at wavenumbers between 1700 and 1600 cm^−1 disappearing during discharging and reappearing during charging, indicating good cycling reversibility of compound 2 as the organic cathode for lithium-ion storage.
as §1, §2

Take `O=C1C(=O)c2ccc(cc2)C(=O)C(=O)c2ccc(cc2)C(=O)C(=O)c2ccc(cc2)C(=O)C(=O)c2ccc1cc2` [compound 1]: the “electrons reversibly stored per molecule during electrochemical cycling” value in data set [1] is recorded as “up to four electrons; also recorded: cannot reversibly store all eight electrons”. Also, the “specific (discharging) capacity” value in data set [1] (current density 100 mA g^−1) is listed as 171 mAh g^−1.
As for `O=C1C(=O)c2ccc3cc(ccc3c2)C(=O)C(=O)c2ccc3cc(ccc3c2)C(=O)C(=O)c2ccc3cc(ccc3c2)C(=O)C(=O)c2ccc3cc1ccc3c2` [compound 2], in data set [1], the “electrons reversibly stored per molecule during electrochemical cycling” value was “up to eight electrons”. For the same compound, the “electron transfer corresponding to specific capacity” value in data set [1] (0.5M electrolyte) is given as about 6.3 e^−; in data set [1] (3M electrolyte) it was “up to 7.6 e^−”. For the same compound, in data set [1], the “dQ/dV redox peak for lithiation” value was 2.37 V and 2.08 V. Moreover, the “discharge (specific) capacity” value in data set [1] (typical cycle, 3M electrolyte solution) was found to be 279 mAh g^−1. The columbic efficiency in data set [2] (3M LiTFSI electrolyte, 1C) is about 99%. Further, the discharge capacity retention in data set [2] (after 135 cycles, 3M LiTFSI, 1C) was about 65%. Further, the capacity maintained result in data set [2] (over 120 cycles, current density 1C) is listed as “higher than 150 mAh g^−1”.
Consider `O=C(C(=O)c1ccc2ccccc2c1)c1ccc2ccccc2c1` [compound 4, 1,2-bis(2-naphthyl)ethan-1,2-dione, reference compound], for which the “dQ/dV redox peak for lithiation” value in data set [1] amounted to 2.17 V. Further, the “specific (discharging) capacity” value in data set [1] (current density 100 mA g^−1) was 148.7 mAh g^−1.
Take `O=C1C(=O)c2ccc(cc2)-c2ccc(cc2)C(=O)C(=O)c2ccc(cc2)-c2ccc(cc2)C(=O)C(=O)c2ccc(cc2)-c2ccc(cc2)C(=O)C(=O)c2ccc(cc2)-c2ccc1cc2` [compound 3]: the “electrons reversibly stored per molecule during electrochemical cycling” value in data set [1] was “cannot reversibly store all eight electrons”. Besides, the charge/discharge profile observation entry in data set [1] (current density 100 mA g^−1, LiTFSI in DOL/DME) is “irreversible discharging tail near the cut-off voltage”.

The values above are taken from US20240290976A1, “CYCLOTETRABENZIL COMPOUNDS FOR ELECTROCHEMICAL LITHIUM-ION STORAGE” (UNIVERSITY OF HOUSTON SYSTEM, priority 2023, published 2024).
